Data as given in PubChem BioAssay AID504791 (Drosophila RNAi Screening Center, 2011)
In all, the deposit lists about 23,000 reagents; shown is a random part of those with a known target gene and a result. In the full data, 199 (0.86%) got an active call. 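Plate-scaled ratios behind the calls are not deposited; printed light signals are raw; many rows marked increased or decreased are still called inactive.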 The record does not give: the direction of the score.

- Aim: 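Factors in Argonaute-based small RNA production and activity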 (primary screen)
- System: Drosophila S2-derived reporter cells
- Knock-down reagent: long dsRNA against Drosophila genes, about 150-250 ng dsRNA per well (siRNA assay); about 80-120 ng (miRNA assay)
- Timing: about 5 days (siRNA assay); about 4 days (miRNA assay)
- Conditions: copper sulfate induction of reporters: 25 µM (siRNA assay); 200 mM stated (miRNA assay), 1-2 days before reading
- Measured: 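Per-well ratio of Renilla over firefly light, expressed relative to that plate's average ratio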
- Active means: 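First-pass picks had plate-scaled ratios over 1.5 for the siRNA assay, over 1.6 for the miRNA assay, or under 0.6; two distinct dsRNAs had to score alike on retest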

Gene	dsRNA	miRNA reporter change	stable assay Renilla, run 1 (luminescence)	stable assay firefly, run 1 (luminescence)	Call
CG18635	DRSC06780		3659	3.71e5	inactive
CG9018	DRSC08618		3764	3.56e5	inactive
lms	DRSC06387		5355	4.12e5	inactive
CG31606	DRSC01012		5024	3.46e5	inactive
PAPLA1	DRSC03095		26684	5.09e5	inactive
PAPLA1	DRSC03096		8022	5.18e5	inactive
rec	DRSC14998		6771	3.29e5	inactive
rec	DRSC15656		7307	3.44e5	inactive
CG6431	DRSC02956		6567	4.25e5	inactive
Pus7	DRSC10703		6312	4.47e5	inactive
Upf1	DRSC19667	reporter ratio raised past the hit cutoff	11423	5.95e5	inactive
inaD	DRSC04694		6471	4.34e5	inactive
CG7536	DRSC20050		7901	5.13e5	inactive
mTTF	DRSC01909		6759	4.36e5	inactive
Ncc69	DRSC10412		7575	3.63e5	inactive
Ncc69	DRSC10413		7335	4.96e5	inactive
Akh	DRSC08138		6222	3.75e5	inactive
Fdx2	DRSC08306		6450	4.14e5	inactive
Wwox	DRSC03030		66007	3.01e5	inactive
Wwox	DRSC22872		5212	5.43e5	inactive
fs(1)M3	DRSC18381		7302	4.15e5	inactive
CG13361	DRSC17896		6091	2.92e5	inactive
CG10417	DRSC04846		10382	1.80e6	inactive
CG5096	DRSC02813		7814	3.05e5	inactive
CG34199	DRSC05867		6099	4.83e5	inactive
CG9813	DRSC16569		7384	6.10e5	inactive
CG7382	DRSC03052		2.54e5	1.97e5	inactive
CG13722	DRSC08331		5842	4.21e5	inactive
CG13722	DRSC21616		7922	4.45e5	inactive
qkr58E-3	DRSC04711		6718	5.07e5	inactive
ago	DRSC08463	reporter ratio raised past the hit cutoff	6406	2.99e5	active
Arc1	DRSC06159		4039	3.95e5	inactive
bc10	DRSC11326		5279	3.44e5	inactive
Spn28Dc	DRSC03029		8443	3.90e5	inactive
pnr	DRSC17027		8011	4.11e5	inactive
CG7264	DRSC10793		6051	3.56e5	inactive
Ir76b	DRSC10831		6970	3.78e5	inactive
mRRF1	DRSC10421		8106	3.49e5	inactive
CG10469	DRSC09729		5839	4.05e5	inactive
Veneno	DRSC16537		8351	4.29e5	inactive
CG11398	DRSC18625		6022	4.29e5	inactive
RpS3	DRSC16838		7739	3.53e5	inactive
Hap40	DRSC20085		7682	5.13e5	inactive
Pfdn6	DRSC10915		6564	3.43e5	inactive
CG17658	DRSC04292		5822	3.27e5	inactive
Rab32	DRSC05146		4259	4.00e5	inactive
Rab32	DRSC07522		9871	5.15e5	inactive
CG15498	DRSC15040		8236	3.62e5	inactive
speck	DRSC04608		1.55e5	9.77e5	inactive
CG5645	DRSC10532		8919	6.26e5	inactive
Hou	DRSC20001		7851	4.62e5	inactive
Hou	DRSC22347		9454	5.83e5	inactive
CNMa	DRSC08405		5731	3.78e5	inactive
CCT3	DRSC16602		7818	2.42e5	inactive
Cad99C	DRSC15050		6907	3.18e5	inactive
Cad99C	DRSC16317		8374	4.35e5	inactive
CG34160	DRSC01131		5171	3.62e5	inactive

Look-ups from the entries so far:
speck [DRSC04608], stable assay firefly, run 1 (luminescence) → 9.77e5
Under “Call”, CG9813 [DRSC16569] is entered as inactive
Entry for PAPLA1 [DRSC03095] in “stable assay Renilla, run 1 (luminescence)”: 26684
For “Call”, pnr [DRSC17027] reads inactive
Value of Veneno [DRSC16537] under “Call”: inactive
Under “Call”, mTTF [DRSC01909] has inactive
